Measurements taken from US9908895B2, “Tricyclic fused thiophene derivatives as JAK inhibitors” (Incyte Corporation, priority 2012, dated 2018).
At least one compound was matched to its structure with a doubt left.

System: human JAK1
Test: In vitro JAK kinase assay (HTRF), JAK1
Type: biochemical
Conditions: ratio of JAK2 IC50 to JAK1 IC50 at 1 mM ATP
Experimental: Compounds herein were tested for inhibitory activity of JAK targets according to the following in vitro assay described in Park et al., Analytical Biochemistry 1999, 269, 94-104. The catalytic domains of human JAK1 (a.a. 837-1142), JAK2 (a.a. 828-1132) and JAK3 (a.a. 781-1124) were expressed using baculovirus in insect cells and purified. The catalytic activity of JAK1, JAK2 or JAK3 was assayed by measuring the phosphorylation of a biotinylated peptide. The phosphorylated peptide was detected by homogenous time resolved fluorescence (HTRF). IC50s of compounds were measured for each kinase in the 40 μL reactions that contain the enzyme, ATP and 500 nM peptide in 50 mM Tris (pH 7.8) buffer with 100 mM NaCl, 5 mM DTT, and 0.1 mg/mL (0.01%) BSA. For the 1 mM IC50 measurements, ATP concentration in the reactions was 1 mM. Reactions were carried out at room temperature for 1 hour and then stopped with 20 μL 45 mM EDTA, 300 nM SA-APC, 6 nM Eu-Py20 in assay buffer (Perkin Elmer, Boston, Mass.). Binding to the Europium labeled antibody took place for 40 minutes and HTRF signal was measured on a PHERA star plate reader (BMG, Cary, N.C.). The Example compounds were each tested in the Example A assay (see Table 1 for data for the compounds of the examples as tested by the assay of Example A at 1 mM ATP).

Cc1nc2cnc3ccsc3c2n1[C@@H]1CC[C@@H](CC#N)[C@H](O)C1.Cc1nc2cnc3ccsc3c2n1[C@H]1CC[C@H](CC#N)[C@@H](O)C1 (mixture of isomers) [41 (first peak), [(1R,2S,4S)-4-(2-Methyl-1H-imidazo[4,5-d]thieno[3,2-b]pyridin-1-yl)-2-hydroxycyclohexyl]acetonitrile and [(1S,2R,4R)-4-(2-methyl-1H-imidazo[4,5-d]thieno[3,2-b]pyridin-1-yl)-2-hydroxycyclohexyl]acetonitrile]
JAK2/JAK1: >10
